Measurements published in US20190106494A1 (published 2019).
Where a chain is given by its changes, count along the chain named. No constants are given. Whether binding was seen depends on the method and setting. A result given as binding can be weak or reduced; the word gives no strength. Values belong to the binder of their own block, whether it stands above or below them.

Target: cynomolgus PD-L1-his (cynomolgus)
Experiment: binding ELISA, cynomolgus PD-L1-his coated

binding: binds
B2: 116F3 chimeric anti-PD-L1 antibody (antibody, V domains shown)
VH: CQSVKESEGGLFKPTDTLTLTCTVSGIDLSSISIGWVRQAPGNGLEWIGTISDSGSAYYASWAKSRSTITRNTNENTVTLKMTSLTAADTASYFCAKEILYYGMDLWGPGTLVTVSS
VL: DVVMTQTPASVSGAVGGTVTIKCQASEDIESYLAWYQQKPGQPPKLLIYAASNLEPGVPSRFKGSRSGTEYTLTITDLECDDAATYHCQATYGSTSSSDYGNAFGGGTKVVVVR

binding: binds
B3: 113F1 chimeric anti-PD-L1 antibody (antibody, V domains shown)
VH: B2 VH with S33A, G35S, S52N, D53S, S54Y, A57T, K64Q, L106V
VL: DVVMTQTPASVEAAVGGTVTIKCQASQSISSYLAWYQQKPGQPPKLLIYAASNLESGVPSRFKGSGSGTEYTLTISDLECDDAATYYCQSTYGTTSTSDYGNAFGGGTKVVVVR

binding: binds
B5: 115E2 chimeric anti-PD-L1 antibody (antibody, V domains shown)
VH: B2 VH with T15M, S30G, I32V, S33A, G35S, N43K, S52G, D53S, E75L, L106R
VL: B3 VL with A14S, K22N, S56P, Y71F, D81A, S90A, T94S, T97S

binding: binds
B7: 115C1 chimeric anti-PD-L1 antibody (antibody, V domains shown)
VH: CQSVKESEGGLFKPTDTLTLTCTVSGFSLSSVAVSWVRQAPGKGLEWIGTISYTGNTYYASWAKSRSTITRNTNENTVTLKMPSLTVADTATYFCAKEILYYGMDFWGPGTLVTVSS
VL: B3 VL with V2I, A9S, E12S, K22N, A50G, E70D, Y71F, D81A, T94S

More lines, now with the values behind:

B1: 110B4 chimeric anti-PD-L1 antibody (antibody, V domains shown)
VH: B2 VH with T23K, G35S, T50V, S52N, D53S, S54Y, S56N, A57T, S92T
VL: DVVMTQTPASVEAAVGGTVTIKCQASQSISSYFSWYQQKPGQRPKLLIYDASNLESGVPSRFKGSRSGTEYTLTISDLEWDDAATYYCQCTYGSTSSSNYGNNFGGGTKVVVVR
binding: binds

B4: 111H2 chimeric anti-PD-L1 antibody (antibody, V domains shown)
VH: QEQLVESGGGLVQPGGTLKLSCKGSGFDLSSNAMCWVRQAPGKGLEWIGCIVYGNCYYASWVNGRFTISSDNAQSSVDLQLNSLTAADTATYFCARDPAGSSVYTGGFNIWGPGTLVTVSS
VL: AIDMTQTPSPVSAAVGDTVTINCQASENIYSFLAWYQQKPGHSPKPLIYFASKLASGVPSRFKGSGSGTQFTLTISDVQCDDAATYYCQQTVSYKNADTAFGGGTKVVVVR
binding: binds

B6: 110H8 chimeric anti-PD-L1 antibody (antibody, V domains shown)
VH: B2 VH with I32V, G35S, S52G, D53A, S65R, E75L
VL: B3 VL with S31N, P43R, S56P, S76T, Y87H, S90C, T94S, T97S
binding: binds
